This series in a line: self-splicing fitness, log relative to wild type (ln ratio); higher = more splicing; Tetrahymena group I intron in knt gene, E. coli kanamycin selection, DiMSum; sequences stand for … in CUCUCU…GGAGGGAAAAGUUAUCAGGCAUGCACCUGGUAGCUAGUCUUUAAACCAAUAGAUUGCAUCGGUUUAAAAGGCAAGACCGUCAAAUUGCGGGAAAGGGGUCAACAGCCGUUCAGUACCAAGUCUCAGGGGAAACUUUGAGAUGGCCUUGCAAAGGGUAUGGUAAUAAGCUGACGGACAUGGUCCUAACCACGCAGCCAAGUCCUAAGUCAACAGAUCUUCUGUUGAUAUGGAUGCAGUUCACAGACUAAAUGUCGGUCGGGGAAGAUGUAUUCUUCUCAUAAGAUAUAGUCGGACCUCUCCUUAAUGGGAGCUAGCGGAUGAAGUGAUGCAACACUGGAGCCGCUGGGAACUAAUUUGUAUGCGAAAGUAUAUUGAUUAGUUUUGGAGUACUCGUGGUCG
The method, boiled down: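 Six replicate transformations of E. coli BL21(DE3) with a pET-22b(+) library were grown overnight at 37°C or 30°C. The library randomised all eight P1ex-region intron nucleotides, the intron lying in the knt kanamycin-resistance gene, and plates were LB agar with or without 25 μg/mL kanamycin plus 100 μg/mL carbenicillin, 50 μM IPTG and 0.2% rhamnose. Pooled colonies were amplicon-sequenced on an Illumina HiSeq 2500, and fitness is the DiMSum error-weighted combination of wild-type-normalised replicate fold changes, kanamycin versus none.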

Here are results for 41 sequences from the supplement of paper PMC7877785.

± gives the uncertainty stated by the source. Many of these values have a large error.

In the case of UUUGAGCAAUAUUACGGGAG, the “self-splicing fitness (ln)” value by setting is: (30 °C) -3.55 ± 0.28; (37 °C) -1.99 ± 0.19. UACAAGCAAUAUUACGACCC: the “self-splicing fitness (ln)” value (37 °C) was -1.33 ± 0.87. Consider GCGAAGCAAUAUUACGCCGC, for which the “self-splicing fitness (ln)” value (30 °C) was 0.062 ± 1.1.

In the case of CGUGAGCAAUAUUACGUCGG, the “self-splicing fitness (ln)” value was -0.475 ± 0.11 (30 °C) and -0.606 ± 0.12 (37 °C). For UGGCAGCAAUAUUACGCGCU, the “self-splicing fitness (ln)” value (30 °C) was -4.11 ± 0.61.

AGAUAGCAAUAUUACGAGAG: the “self-splicing fitness (ln)” value is, setting by setting: (30 °C) -3.7 ± 0.29; (37 °C) -2.37 ± 0.25. For CGUAAGCAAUAUUACGUUAC the same measures were -3.56 ± 0.26 and -2.03 ± 0.28. As for GUGGAGCAAUAUUACGUCUG, the “self-splicing fitness (ln)” value (30 °C) was -4.44 ± 0.59. Regarding UCGCAGCAAUAUUACGCCCG, for the setting “37 °C”, the “self-splicing fitness (ln)” value was 0.00158 ± 0.65. Still for that read-out and setting: the value for UCGAAGCAAUAUUACGAUAC was -3.48 ± 1. Consider UAUUAGCAAUAUUACGUUCU, for which the “self-splicing fitness (ln)” value reads like this: (30 °C) -2.64 ± 0.24; (37 °C) -1.19 ± 0.17. In the case of CUGCAGCAAUAUUACGAUUC, the “self-splicing fitness (ln)” value (30 °C) was -4.39 ± 0.51. CUAGAGCAAUAUUACGUAAG: the “self-splicing fitness (ln)” value runs as follows: (30 °C) -0.628 ± 0.06; (37 °C) 0.154 ± 0.089. Take UGUGAGCAAUAUUACGCUUC: where the note is “37 °C”, the “self-splicing fitness (ln)” value is -4.25 ± 1. On the same count and under the same terms, the same measure for CCUCAGCAAUAUUACGCCAA: -2.69 ± 0.53. For the sequence GCAGAGCAAUAUUACGGCCU, the “self-splicing fitness (ln)” value (30 °C) is -2.37 ± 0.78. On to CCAAAGCAAUAUUACGCUCC, for which the “self-splicing fitness (ln)” value is, setting by setting: (30 °C) -1.01 ± 0.2; (37 °C) -1.74 ± 0.36.

As for UUUGAGCAAUAUUACGACCC, the “self-splicing fitness (ln)” value runs as follows: (30 °C) -2.66 ± 1.1; (37 °C) -1.99 ± 0.66. Consider AGUUAGCAAUAUUACGAAAC, for which, for the setting “30 °C”, the “self-splicing fitness (ln)” value is -1.93 ± 0.82. In the case of UAACAGCAAUAUUACGUGAA, the “self-splicing fitness (ln)” value (30 °C) is -1.61 ± 0.065 and the “self-splicing fitness (ln)” value (37 °C) was -0.749 ± 0.083. For GGACAGCAAUAUUACGAUUU, in that order: 0.167 ± 0.047 and 0.417 ± 0.065.

In the case of GCGCAGCAAUAUUACGUCCC, the “self-splicing fitness (ln)” value (30 °C) is -1.14 ± 0.3 and the “self-splicing fitness (ln)” value (37 °C) turned out to be 0.234 ± 0.2. Regarding GAGGAGCAAUAUUACGCCAC, the “self-splicing fitness (ln)” value was -3.85 ± 0.59 (30 °C) and -2.39 ± 0.37 (37 °C). For CCAGAGCAAUAUUACGUGAC, in that order: -3.36 ± 0.19 and -3.93 ± 0.46. As for UAAUAGCAAUAUUACGGACC, the “self-splicing fitness (ln)” value (30 °C) is -3.27 ± 0.61. As for UUUGAGCAAUAUUACGCCUU, the “self-splicing fitness (ln)” value (37 °C) is -2.2 ± 0.45. Still for that read-out and setting: the value for GACGAGCAAUAUUACGCCCG was -1.09 ± 0.92. As to GCGGAGCAAUAUUACGAGAA, under “30 °C”, the “self-splicing fitness (ln)” value is -1.52 ± 1.2. On the same count and under the same terms, the same measure for GUGCAGCAAUAUUACGUCAC: -4.41 ± 0.72. Regarding UUUGAGCAAUAUUACGGACC, the “self-splicing fitness (ln)” value reads like this: (30 °C) -4.04 ± 1.1; (37 °C) -2.2 ± 0.79. For GAAGAGCAAUAUUACGCCGA, in that order: -2.92 ± 0.62 and -4.93 ± 1.

Turning to UUUCAGCAAUAUUACGCCUC, the “self-splicing fitness (ln)” value (30 °C) is -1.67 ± 0.91. Consider GUUGAGCAAUAUUACGUGCU, for which, where the note is “37 °C”, the “self-splicing fitness (ln)” value was -1.9 ± 0.68. For GAGGAGCAAUAUUACGUACG, the “self-splicing fitness (ln)” value (37 °C) is -1.87 ± 0.52. In the case of CCUGAGCAAUAUUACGAAUU, the “self-splicing fitness (ln)” value (30 °C) is -2.96 ± 0.2 and the “self-splicing fitness (ln)” value (37 °C) was -2.15 ± 0.31. With CGCGAGCAAUAUUACGGACA, the “self-splicing fitness (ln)” value (30 °C) is -2.78 ± 0.64. As to GGCUAGCAAUAUUACGCUGG, the “self-splicing fitness (ln)” value (37 °C) is -1.98 ± 0.79. Turning to CUGGAGCAAUAUUACGAUCC, the “self-splicing fitness (ln)” value reads like this: (30 °C) -3.34 ± 1.1; (37 °C) -1.72 ± 0.52. For CAUUAGCAAUAUUACGGCCC the same measures were -2.67 ± 0.57 and -2.21 ± 0.8. Take GUCCAGCAAUAUUACGAGCC: the “self-splicing fitness (ln)” value is -1.18 ± 0.15 (30 °C) and -0.519 ± 0.16 (37 °C).

Turning to GAUAAGCAAUAUUACGCUGA, under “30 °C”, the “self-splicing fitness (ln)” value was -5.31 ± 1.
